Test results from patent US5001048A (priority 1987, dated 1991).
Several values for one entry are separate records, joined by “and”; a condition that tells them apart may be missing. Equal entries are not always repeated. At least one compound was matched to its structure with a doubt left.

Assays:
[1] = test system: immobilized acetylcholine receptor (AChR); assay: AChR sensor alternating current impedance response to agent challenge; format: binding, Electrophorus electricus; details: for AChR sensor response: 50 to 100 uL
Method: (§1) All measurements utilized wetted biosensors (i.e., sensors presoaked in deionized water and test buffer). The biosensor was washed with deionized water to a constant output value (that is, it maintained the same impedance value upon further washing). This established a baseline value for the sensor in absence of ligand. Test samples in buffer were then added. Output (changes in impedance, etc) was recorded as a function of time.
(§2) Two approaches were used to evaluate the functionality of the two types (i.e., receptor and antibody-based) of biosensors. In the first approach, measurements were taken sequentially on control and test sensors ("chips") and compared. This approach can be done quickly for rapid evaluation of a sensor (FIGS. 1 and 3). However, background (i.e., non specific binding to the sensor) is not subtracted out automatically. […] This allows for simultaneous challenge (i.e., challenge of both the control and the receptor-containing biosensor at the same time) and background is automatically subtracted out.
(§3) In the case in which sequential measurements were used, alternating current measurements were made on the sensors, and changes were recorded in impedance (measured in ohms), capacitance or phase angle. Samples in volumes of 5 to 200 microliters (ul) were analyzed; […].
(§4) Typically, a sample to be tested (i.e., one thought to contain an analyte of interest) was applied to a sensor which had been previously equilibrated with deionized water and readings of output impedance from the sensor were taken. Equilibration to constant readings occurred within 2 to 10 sec. Readings remained stable for at least the 5 minutes during which the output was routinely monitored. The sensor was then washed with deionized water to background equilibrium, sample was again added and readings were taken. In each case 2 to 5 cycles were carried out in this way.

[2] = Control sensor (same formulation, no AChR added) impedance response to agent challenge; details: 50 to 100 uL
Method: as §1, §2, §3, §4
^b Control sensor is the same formulation as AChR but with no AChR

SMILES: CC(=O)OCC[N+](C)(C)C [ACh, acetylcholine]
- sensor output after Add Sample, Test 3 ([1]; ACh 5 ug/ml, 50 to 100 ul, sequential additions after washing on same sensor): 17.4 K.OMEGA. and 16.7 K.OMEGA.
- sensor output after Add Sample, Test 2 ([1]; ACh 50 ug/ml, 50 to 100 ul, sequential additions after washing on same sensor): 27.2 K.OMEGA. and 29.5 K.OMEGA.
- sensor output after Add Sample, Test 1 ([1]; ACh 500 ug/ml, 50 to 100 ul, sequential additions after washing on same sensor): 26.5 K.OMEGA. and 27.1 K.OMEGA.
- % Change of AChR sensor with respect to control ([1]; agent 5 ug/ml): 8%
- AChR sensor response ([1]; agent 5 ug/ml): 25 K.OMEGA.
- % Change of AChR sensor with respect to control ([1]; agent 50 ug/ml): 55%
- AChR sensor response ([1]; agent 50 ug/ml): 17 K.OMEGA.
- % Change of AChR sensor with respect to control ([1]; agent 500 ug/ml): 125%
- AChR sensor response ([1]; agent 500 ug/ml): 9 K.OMEGA.
- change in resistance between control and AChR sensors (in words) ([1]; dose-response, Table 5): dose-dependent change in resistance
- percentage change in resistance ([1]; highest concentration tested): over 100%
- Control sensor response ([2]; agent 5 ug/ml): 23 K.OMEGA.
- Control sensor response ([2]; agent 50 ug/ml): 11 K.OMEGA.
- Control sensor response ([2]; agent 500 ug/ml): 4 K.OMEGA.
